Paper doi:10.1101/2025.10.29.685374
These are yes or no findings as the source states them, for the method shown. In cells and extracts the contact can be indirect. Some binding calls cover weakened binding; strength is not graded here. Tags and fused reporters may be left off the sequences shown.

Amino acid sequences for entries named in this document (tags omitted).
UniProt P63167: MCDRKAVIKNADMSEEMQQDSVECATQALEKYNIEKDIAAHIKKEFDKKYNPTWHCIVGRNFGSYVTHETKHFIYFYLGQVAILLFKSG
UniProt P33176: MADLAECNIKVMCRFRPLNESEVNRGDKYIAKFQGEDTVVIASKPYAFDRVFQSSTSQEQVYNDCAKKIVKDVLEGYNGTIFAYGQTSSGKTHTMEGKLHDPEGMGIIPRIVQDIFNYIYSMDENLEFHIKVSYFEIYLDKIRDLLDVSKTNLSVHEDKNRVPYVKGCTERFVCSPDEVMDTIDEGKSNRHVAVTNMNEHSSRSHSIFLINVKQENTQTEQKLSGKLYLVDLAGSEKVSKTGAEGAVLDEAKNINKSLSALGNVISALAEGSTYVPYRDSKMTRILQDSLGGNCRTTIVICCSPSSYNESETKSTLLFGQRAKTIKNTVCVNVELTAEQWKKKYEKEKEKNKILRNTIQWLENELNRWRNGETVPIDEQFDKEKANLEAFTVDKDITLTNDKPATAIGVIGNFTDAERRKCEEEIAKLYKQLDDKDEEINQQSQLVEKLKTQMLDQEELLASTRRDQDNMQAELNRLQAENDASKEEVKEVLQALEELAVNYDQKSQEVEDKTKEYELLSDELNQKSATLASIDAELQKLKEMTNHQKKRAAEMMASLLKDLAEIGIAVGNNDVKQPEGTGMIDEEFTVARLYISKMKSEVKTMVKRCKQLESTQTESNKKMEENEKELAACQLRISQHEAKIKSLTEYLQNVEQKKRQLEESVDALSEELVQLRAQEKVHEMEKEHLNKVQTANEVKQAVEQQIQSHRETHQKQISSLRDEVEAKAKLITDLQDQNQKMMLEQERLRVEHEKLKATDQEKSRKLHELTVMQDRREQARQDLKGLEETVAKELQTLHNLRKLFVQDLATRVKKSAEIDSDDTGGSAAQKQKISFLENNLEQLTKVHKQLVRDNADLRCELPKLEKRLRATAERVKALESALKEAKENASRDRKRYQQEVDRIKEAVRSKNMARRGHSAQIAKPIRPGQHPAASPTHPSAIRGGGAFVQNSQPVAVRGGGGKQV

Tests used:
[1] = molecular target: T1, GFP-tagged syntabulin (GFP-SYBU) (UniProt Q9NX95); assay: proximity ligation
T1 sequence: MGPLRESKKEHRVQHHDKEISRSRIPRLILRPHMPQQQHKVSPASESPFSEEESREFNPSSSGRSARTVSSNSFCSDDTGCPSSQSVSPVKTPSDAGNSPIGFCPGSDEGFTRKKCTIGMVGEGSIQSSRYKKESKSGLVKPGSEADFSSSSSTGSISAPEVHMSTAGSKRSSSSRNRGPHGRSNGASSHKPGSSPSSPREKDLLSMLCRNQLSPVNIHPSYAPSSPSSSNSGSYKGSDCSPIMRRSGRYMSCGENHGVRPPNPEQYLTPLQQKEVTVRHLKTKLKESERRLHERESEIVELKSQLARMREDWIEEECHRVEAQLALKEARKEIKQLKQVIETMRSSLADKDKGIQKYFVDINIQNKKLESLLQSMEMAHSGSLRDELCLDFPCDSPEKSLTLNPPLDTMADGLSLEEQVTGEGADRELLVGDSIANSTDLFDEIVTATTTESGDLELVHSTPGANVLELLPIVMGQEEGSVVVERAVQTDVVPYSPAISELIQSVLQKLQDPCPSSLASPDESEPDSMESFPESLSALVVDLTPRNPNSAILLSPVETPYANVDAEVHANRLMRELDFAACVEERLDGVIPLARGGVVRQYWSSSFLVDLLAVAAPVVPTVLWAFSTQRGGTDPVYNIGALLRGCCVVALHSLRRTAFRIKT

[2] = molecular target: T1, GFP-tagged syntabulin (GFP-SYBU); assay: co-IP

Substance | binding [1] | binding [2]
dynein light chain 1 DYNLL1 (LC8) (from UniProt P63167 1-89) | binds | binds
kinesin-1 motor protein KIF5B (from UniProt P33176 1-963) | – | no binding
